Results are given in words; binding and its absence hold for the method and conditions named. Binding seen in cells or lysates may run through a third protein. Some binding calls cover weakened binding; strength is not graded here. Sequences can lack the tags named with a protein.
Molecular target: T1, GST-tagged 14-3-3γ (UniProt P61981 1-247)
T1 construct: 14-3-3γ, in the bacterial expression vector pGEX-4T3; Held on glutathione sepharose 4B as bait; also called GST-14-3-3γ; GST-14-3-3
T1 sequence (looked up): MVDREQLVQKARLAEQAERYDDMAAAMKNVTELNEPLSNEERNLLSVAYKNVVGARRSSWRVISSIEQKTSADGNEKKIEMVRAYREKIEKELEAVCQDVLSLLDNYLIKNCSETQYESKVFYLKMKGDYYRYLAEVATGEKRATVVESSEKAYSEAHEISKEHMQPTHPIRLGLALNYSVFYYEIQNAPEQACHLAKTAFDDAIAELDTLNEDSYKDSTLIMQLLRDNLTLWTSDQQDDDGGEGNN
Test: pull-down; glutathione sepharose 4B saturated with purified GST-14-3-3γ, incubated with lysates of transfected HEK293T cells; cells without or with 10 µM forskolin (time course or 15 min), RGS18 alone or co-expressed with myc-spinophilin and/or VSV-PP1 catalytic subunit; precipitates blotted with anti-RGS18 or anti-FLAG; only the target purified

binding: binds
B1: FLAG-tagged S216A mutant RGS18 (protein, UniProt Q9NS28 1-235)
chain: METTLLFFSQINMCESKEKTFFKLIHGSGKEETSKEAKIRAKEKRNRLSLLVQKPEFHEDTRSSRSGHLAKETRVSPEEAVKWGESFDKLLSHRDGLEAFTRFLKTEFSEENIEFWIACEDFKKSKGPQQIHLKAKAIYEKFIQTDAPKEVNLDFHTKEVITNSITQPTLHSFDAAQSRVYQLMEQDSYTRFLKSDIYLDLMEGRPQRPTNLRRRARSFTCNEFQDVQSDVAIWL
modifications: phosphoserine at S49 (s3 band present in S216A)
